The assay concerns the target Smarca4 (mouse (endogenous in 81K1 ESC)) (UniProt Q3TKT4). Kind of assay: co-IP; anti-Brg1 (H-88) or anti-Baf155 (R18) coupled to A/G PLUS agarose beads; 1 mg lysate of 81K1 ESC in GENNT buffer (5% glycerol, 5 mM EDTA, 0.2% NP-40, 150 mM NaCl, 50 mM Tris-HCl pH 8.0), 4 °C overnight; cells untreated or treated with doxycycline for three days (Smarcb1 knockdown); Western blot. For orientation: A western blot detects proteins with antibodies after separation by electrophoresis.

The chains behind the UniProt entries cited, without tags or fusion partners.
UniProt Q3TKT4: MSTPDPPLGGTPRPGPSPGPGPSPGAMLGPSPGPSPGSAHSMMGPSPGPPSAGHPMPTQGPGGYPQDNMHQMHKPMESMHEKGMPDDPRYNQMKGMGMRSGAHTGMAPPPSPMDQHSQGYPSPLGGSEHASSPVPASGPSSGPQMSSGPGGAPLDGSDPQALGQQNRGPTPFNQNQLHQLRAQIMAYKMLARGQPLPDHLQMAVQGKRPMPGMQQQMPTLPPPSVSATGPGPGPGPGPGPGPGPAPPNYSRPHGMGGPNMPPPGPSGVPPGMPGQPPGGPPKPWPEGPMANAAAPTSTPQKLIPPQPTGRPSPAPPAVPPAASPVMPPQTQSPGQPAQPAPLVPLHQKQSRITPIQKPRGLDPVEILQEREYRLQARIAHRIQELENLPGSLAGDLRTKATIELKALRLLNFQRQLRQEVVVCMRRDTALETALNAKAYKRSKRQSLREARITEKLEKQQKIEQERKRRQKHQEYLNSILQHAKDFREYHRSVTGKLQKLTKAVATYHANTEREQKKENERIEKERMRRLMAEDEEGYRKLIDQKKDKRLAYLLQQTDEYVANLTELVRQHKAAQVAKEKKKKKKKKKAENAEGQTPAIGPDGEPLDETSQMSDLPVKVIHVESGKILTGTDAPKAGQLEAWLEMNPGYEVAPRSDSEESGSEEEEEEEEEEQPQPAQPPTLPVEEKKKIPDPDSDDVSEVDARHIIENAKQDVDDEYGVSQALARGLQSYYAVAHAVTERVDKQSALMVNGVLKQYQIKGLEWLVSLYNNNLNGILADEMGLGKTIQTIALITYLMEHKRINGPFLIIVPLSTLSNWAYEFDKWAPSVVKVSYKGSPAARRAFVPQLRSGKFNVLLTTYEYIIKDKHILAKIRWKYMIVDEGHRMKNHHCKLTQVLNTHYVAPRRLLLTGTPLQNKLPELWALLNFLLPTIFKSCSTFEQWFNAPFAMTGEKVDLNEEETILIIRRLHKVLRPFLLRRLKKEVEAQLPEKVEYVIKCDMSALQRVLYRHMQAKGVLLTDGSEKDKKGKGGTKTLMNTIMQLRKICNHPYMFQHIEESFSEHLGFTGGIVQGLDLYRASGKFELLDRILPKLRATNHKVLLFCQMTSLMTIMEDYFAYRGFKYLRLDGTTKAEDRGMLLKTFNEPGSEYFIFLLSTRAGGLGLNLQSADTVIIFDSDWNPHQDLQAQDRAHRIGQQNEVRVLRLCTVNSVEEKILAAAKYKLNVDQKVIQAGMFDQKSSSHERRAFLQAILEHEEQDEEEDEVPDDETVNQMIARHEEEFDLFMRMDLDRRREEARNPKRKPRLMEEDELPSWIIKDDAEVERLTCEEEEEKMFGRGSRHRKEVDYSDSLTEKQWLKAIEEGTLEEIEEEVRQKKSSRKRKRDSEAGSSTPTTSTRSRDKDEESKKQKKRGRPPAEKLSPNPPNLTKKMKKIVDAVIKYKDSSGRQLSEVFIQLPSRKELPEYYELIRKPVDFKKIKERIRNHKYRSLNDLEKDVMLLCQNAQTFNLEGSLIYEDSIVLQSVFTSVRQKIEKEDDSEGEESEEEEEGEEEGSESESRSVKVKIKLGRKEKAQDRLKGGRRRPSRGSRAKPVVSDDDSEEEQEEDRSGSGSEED
UniProt P97496: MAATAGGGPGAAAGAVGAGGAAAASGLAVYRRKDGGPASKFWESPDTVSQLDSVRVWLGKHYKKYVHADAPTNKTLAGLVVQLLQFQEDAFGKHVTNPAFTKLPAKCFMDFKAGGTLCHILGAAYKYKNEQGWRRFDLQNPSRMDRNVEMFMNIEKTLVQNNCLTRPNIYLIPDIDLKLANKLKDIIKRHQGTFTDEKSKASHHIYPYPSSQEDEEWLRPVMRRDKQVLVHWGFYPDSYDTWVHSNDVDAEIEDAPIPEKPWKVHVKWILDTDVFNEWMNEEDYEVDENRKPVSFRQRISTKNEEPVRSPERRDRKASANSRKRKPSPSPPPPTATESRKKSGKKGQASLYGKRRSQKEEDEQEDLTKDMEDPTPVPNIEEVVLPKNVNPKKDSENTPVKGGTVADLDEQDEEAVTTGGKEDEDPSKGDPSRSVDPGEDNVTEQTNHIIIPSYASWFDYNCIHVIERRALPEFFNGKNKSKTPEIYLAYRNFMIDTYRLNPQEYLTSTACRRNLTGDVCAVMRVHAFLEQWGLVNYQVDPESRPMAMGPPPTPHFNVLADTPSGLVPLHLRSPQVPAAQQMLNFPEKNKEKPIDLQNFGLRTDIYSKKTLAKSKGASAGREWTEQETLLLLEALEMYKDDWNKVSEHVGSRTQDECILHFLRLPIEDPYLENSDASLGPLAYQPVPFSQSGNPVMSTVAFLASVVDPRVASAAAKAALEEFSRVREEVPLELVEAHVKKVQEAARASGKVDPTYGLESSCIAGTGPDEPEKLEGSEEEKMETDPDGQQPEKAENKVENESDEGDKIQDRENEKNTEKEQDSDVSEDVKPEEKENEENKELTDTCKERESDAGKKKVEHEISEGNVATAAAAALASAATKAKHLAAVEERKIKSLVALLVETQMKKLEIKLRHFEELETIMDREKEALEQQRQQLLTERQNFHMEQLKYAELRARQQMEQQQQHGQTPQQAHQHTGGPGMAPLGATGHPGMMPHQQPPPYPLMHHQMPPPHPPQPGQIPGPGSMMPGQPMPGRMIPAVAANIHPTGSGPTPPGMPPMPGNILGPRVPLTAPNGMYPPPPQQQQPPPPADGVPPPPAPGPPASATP

These are yes or no findings as the source states them, for the method shown. Binding seen in cells or lysates may run through a third protein. Some results given as binding are weak or reduced against the parent protein; the word gives no strength.

As to Smarcc1 (from UniProt P97496 1-1104), the binding result is recorded as “binds”.

Values taken from PMC9027123.
